Results deposited as PubChem BioAssay AID1671195 (Yale University, 2021).
Purpose: 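Genes whose knockdown alters LDL uptake in liver cancer cells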 (primary screen). Cells: human Huh7 hepatoma cells. Reagent: siRNA pool against human genes, 18 nM. Time to read-out: about 2 to 2.5 days of knockdown, then 8 h LDL uptake. Conditions: DiI-labelled LDL at 30 µg/ml for 8 h, in lipoprotein-deficient serum medium. Measured: 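Fluorescent LDL signal imaged in cells, scaled to the plate median, robust z-score for each replicate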. Scale: robust z-score: higher = more LDL uptake after knockdown. Hit rule: 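Active when two or more replicates show a robust z-score above 2 or below -2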.
This is a random part of about 22,000 reagents. About 1,510 of all reagents (6.9%) were called active. 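Active includes knockdowns raising or lowering LDL uptake; positive z-scores mean more uptake, negative mean less.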 Entries without a mark were called inactive.

Gene	robust z-score, replicate 1	robust z-score, replicate 2	robust z-score, replicate 3
TPPP	1.44	1.03	0.254
TTPAL	0.937	0.726	0.119
CFAP44	-1.6	0.0744	0.656
RSPH3	-1.15	-1.48	-1.63
TMEM204	-1.17	-0.991	-0.745
ACAA1	-0.52	-0.417	-0.595
LOC401287 (retired record)	-0.0389	-0.14	-0.0362
LOC440537 (retired record)	0.469	0.532	-0.0613
TRAF1	-1.65	0.0725	-0.779
PHF8	-0.722	-0.804	0.129
CLDN14	-0.726	-0.862	-1.12
OR4Q3	-0.973	-0.797	-0.78
ZNF209P	-1.25	-0.902	-0.9
MB21D2	0.61	0.734	-0.508
TRAM1	-2.34	-1.36	-1.23
GALNTL5	-0.342	-0.116	-0.012
GOLGA4	0.0274	0.205	-1.46
SPRTN	-0.149	-0.637	0.383
RAD50	-0.795	-1.17	-0.735
LOC388938 (retired record)	0.574	0.431	0.437
SNX16	0.171	0.00701	0.053
APIP	-0.504	-1.62	-0.847
STXBP5L	1.34	0.581	0.587
FGR	-0.784	-0.288	-0.325
RFNG	-0.338	-0.258	-0.399
TRIM51G	-1.65	-1.45	-1.64
EFCAB14	-1.17	-0.498	-1.29
TCF25	-0.64	0.12	-1.72
HS6ST2	1.24	-0.0301	0.919
CDK5RAP3	-2.08 (active)	-2.13	-2.26
TLR10	-0.369	-0.816	-0.633
GJB1	0.0149	-0.574	-0.709
TTBK1	-0.248	-0.518	-0.0623
KCNJ2	-0.181	-0.623	-0.185
RPS5	-0.0274	0.415	1.95
ATAD3B	-1.24	-0.459	-0.566
ENOSF1	-0.419	-1.13	-0.468
USP41P	-1.17	-1.45	-0.663
LOC253584 (retired record)	-0.072	0.184	0.191
VPS13C	0.565	0.688	1.95

Reagents listed above marked active (1):
Gene	robust z-score, replicate 1	robust z-score, replicate 2	robust z-score, replicate 3
CDK5RAP3	-2.08 (active)	-2.13	-2.26

The results go on.
Gene	robust z-score, replicate 1	robust z-score, replicate 2	robust z-score, replicate 3
SLC51A	-0.269	-0.366	-0.21
LOC388173 (retired record)	0.678	0.981	1.76
CHERP	0.306	0.46	0.622
BZW1P2	-0.174	-1.2	-0.699
SECTM1	-0.779	-0.276	-2.03
LOC401943 (retired record)	0.0408	0.147	0.522
FAM226A	2.75 (active)	2.4	2.4
TEPSIN	-0.11	0.683	0.518
ADCY4	-1.14	-1.69	-0.683
LINC01588	0.252	-0.224	-0.283
UBTD1	-0.652	-0.685	-0.255
LOC389819 (retired record)	-1.17	-1.3	-1.99
PGBDF	-0.649	-1.1	-1.06
DENND6A	-0.217	-0.244	0.171
PAX6-AS1	1.07	1.73	1.06
ATP10A	-1.02	-1.62	-1.76
SALL1	-1.65	-1.82	-1.38
MRGPRX6P	1.58	1.03	0.864
FGF5	-1.12	-0.378	-0.734
LOC440496 (retired record)	-0.608	-0.506	-0.642
AHCY	0.072	-0.0256	-0.297
CCDC144BP	-1.22	-0.963	-1.21
BCS1L	2.81 (active)	1.82	2.64
KLHL35	-0.957	-1.02	-1.21
NRF1	0.356	-0.051	-0.128
CYP2J2	0.818	0.474	0.11
SLC2A10	0.275	0.402	0.387
ZNF177	0.543	1.24	0.955
